{
  "sequences": {"note": "Protein sequences, listed by entry. Tags and fused reporters are not part of them.", "UniProt P51532": "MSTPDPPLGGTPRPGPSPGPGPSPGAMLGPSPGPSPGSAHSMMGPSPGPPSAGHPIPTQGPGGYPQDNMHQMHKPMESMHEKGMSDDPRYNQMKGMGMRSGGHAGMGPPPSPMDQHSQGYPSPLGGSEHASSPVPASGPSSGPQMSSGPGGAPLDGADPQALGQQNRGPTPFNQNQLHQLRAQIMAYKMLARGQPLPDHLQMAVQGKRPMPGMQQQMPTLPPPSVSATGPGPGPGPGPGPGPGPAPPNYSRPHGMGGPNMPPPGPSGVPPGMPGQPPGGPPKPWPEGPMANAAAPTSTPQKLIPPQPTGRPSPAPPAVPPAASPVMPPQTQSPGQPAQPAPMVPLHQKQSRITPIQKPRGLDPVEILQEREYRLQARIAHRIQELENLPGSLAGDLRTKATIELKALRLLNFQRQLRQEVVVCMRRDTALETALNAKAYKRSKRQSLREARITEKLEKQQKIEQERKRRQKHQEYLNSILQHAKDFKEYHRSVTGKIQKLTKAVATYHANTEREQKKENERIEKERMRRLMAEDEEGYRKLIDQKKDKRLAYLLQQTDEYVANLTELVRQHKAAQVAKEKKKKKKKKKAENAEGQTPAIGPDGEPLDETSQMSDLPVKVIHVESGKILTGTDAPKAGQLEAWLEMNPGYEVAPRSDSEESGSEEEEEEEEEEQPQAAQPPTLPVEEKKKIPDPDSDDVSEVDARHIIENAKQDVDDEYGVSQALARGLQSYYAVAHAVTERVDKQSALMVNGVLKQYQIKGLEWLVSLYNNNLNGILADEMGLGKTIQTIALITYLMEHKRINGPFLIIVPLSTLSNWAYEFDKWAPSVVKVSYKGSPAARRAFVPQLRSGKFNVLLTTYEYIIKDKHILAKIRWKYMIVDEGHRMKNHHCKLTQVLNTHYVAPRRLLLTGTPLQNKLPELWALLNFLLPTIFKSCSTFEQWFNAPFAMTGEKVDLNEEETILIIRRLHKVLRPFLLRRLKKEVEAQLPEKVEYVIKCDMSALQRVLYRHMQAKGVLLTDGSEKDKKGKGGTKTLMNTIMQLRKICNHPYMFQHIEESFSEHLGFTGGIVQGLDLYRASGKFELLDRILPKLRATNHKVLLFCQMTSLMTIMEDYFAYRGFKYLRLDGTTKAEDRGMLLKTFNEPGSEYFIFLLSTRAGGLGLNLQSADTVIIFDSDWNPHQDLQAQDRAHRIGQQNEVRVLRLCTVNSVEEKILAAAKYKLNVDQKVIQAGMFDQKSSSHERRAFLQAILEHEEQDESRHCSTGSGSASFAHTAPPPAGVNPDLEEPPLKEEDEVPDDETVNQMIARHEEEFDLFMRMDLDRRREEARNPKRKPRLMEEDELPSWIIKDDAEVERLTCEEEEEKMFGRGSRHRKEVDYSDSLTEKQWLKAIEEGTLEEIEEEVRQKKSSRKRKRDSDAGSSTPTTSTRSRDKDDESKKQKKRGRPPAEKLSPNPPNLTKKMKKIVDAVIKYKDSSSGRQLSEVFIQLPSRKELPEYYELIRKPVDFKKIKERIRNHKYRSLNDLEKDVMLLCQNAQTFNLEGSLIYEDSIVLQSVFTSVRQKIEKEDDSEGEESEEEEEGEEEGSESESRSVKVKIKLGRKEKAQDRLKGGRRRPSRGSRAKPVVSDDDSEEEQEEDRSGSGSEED", "UniProt Q12824": "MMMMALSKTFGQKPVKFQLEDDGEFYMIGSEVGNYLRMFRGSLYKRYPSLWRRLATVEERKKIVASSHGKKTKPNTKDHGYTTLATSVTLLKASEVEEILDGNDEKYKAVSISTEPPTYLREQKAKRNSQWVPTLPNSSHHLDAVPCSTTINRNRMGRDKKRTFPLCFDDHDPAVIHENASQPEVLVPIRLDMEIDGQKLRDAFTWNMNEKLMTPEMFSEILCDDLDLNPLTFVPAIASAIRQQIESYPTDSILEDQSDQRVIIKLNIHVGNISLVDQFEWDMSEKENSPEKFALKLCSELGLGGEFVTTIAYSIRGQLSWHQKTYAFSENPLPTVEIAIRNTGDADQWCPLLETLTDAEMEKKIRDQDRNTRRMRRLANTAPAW"},
  "source": "paper doi:10.1101/2024.09.18.613695",
  "biological_target": "BRM/SWI2-related gene 1 (BRG1) (human (endogenous in VA-ES-BJ and NEPS)) (UniProt P51532)",
  "assay": "co-IP",
  "note": "These are yes or no findings as the source states them, for the method shown. Binding seen in cells or lysates may run through a third protein. Some entries that bind do so weakly or less than the wild type.",
  "data": [
    {"substance": "SWI/SNF-related, matrix associated, actin dependent regulator of chromatin, subfamily B, member 1 (SMARCB1) (from UniProt Q12824 1-385)", "values": [
      {"measurement": "binding", "result": "binds"}
    ]}
  ]
}
